Data from patent publication US11230532B2, “Pyrimidines and variants thereof, and uses therefor” (Afferent Pharmaceuticals Inc., priority 2016, dated 2022).

By UniProt entry, the sequences of proteins in these tests, tags left out.
UniProt P56373, whole entry: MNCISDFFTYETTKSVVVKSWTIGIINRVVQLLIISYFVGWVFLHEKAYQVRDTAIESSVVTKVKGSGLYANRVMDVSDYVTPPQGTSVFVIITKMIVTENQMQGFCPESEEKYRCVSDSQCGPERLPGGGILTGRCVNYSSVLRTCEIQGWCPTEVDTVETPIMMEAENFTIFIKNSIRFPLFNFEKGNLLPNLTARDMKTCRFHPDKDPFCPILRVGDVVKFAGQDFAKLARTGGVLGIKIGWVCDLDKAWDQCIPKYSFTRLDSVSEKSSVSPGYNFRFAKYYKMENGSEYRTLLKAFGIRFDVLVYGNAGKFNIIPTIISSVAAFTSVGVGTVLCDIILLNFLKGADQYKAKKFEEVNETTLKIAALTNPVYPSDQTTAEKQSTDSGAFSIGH
UniProt Q9UBL9, whole entry: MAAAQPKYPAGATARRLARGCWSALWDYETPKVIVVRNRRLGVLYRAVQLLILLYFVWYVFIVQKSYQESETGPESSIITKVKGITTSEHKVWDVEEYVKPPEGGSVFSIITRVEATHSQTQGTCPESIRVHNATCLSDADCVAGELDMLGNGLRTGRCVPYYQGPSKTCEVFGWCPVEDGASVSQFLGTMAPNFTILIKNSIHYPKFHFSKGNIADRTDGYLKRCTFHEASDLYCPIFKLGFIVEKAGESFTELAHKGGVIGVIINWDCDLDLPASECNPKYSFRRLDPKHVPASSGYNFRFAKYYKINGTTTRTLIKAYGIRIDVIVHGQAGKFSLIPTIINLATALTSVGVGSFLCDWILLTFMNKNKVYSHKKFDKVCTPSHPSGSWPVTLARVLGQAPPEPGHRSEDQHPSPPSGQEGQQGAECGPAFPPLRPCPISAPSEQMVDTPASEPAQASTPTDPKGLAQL

Experiments:
[1] = target: human P2X2/3 receptor (heteromeric P2X2/3 channels) (Homo sapiens, UniProt P56373+Q9UBL9); assay: FlexStation calcium fluorescence assay, heteromeric P2X2/3 channels (1321N1-hP2X2/3 cells); conditions: agonist 3 μM ATP, highest concentration tested 10 μM
[2] = target: human P2X3 receptor (homomeric P2X3 channels) (Homo sapiens, UniProt P56373); assay: FlexStation calcium fluorescence assay, homomeric P2X3 channels (HEK-hP2X3 cells)

- Average pIC50 P2X2/3 [1]: 6.4
- Average pIC50 P2X3 ([2]; HEK293 cells stably transfected with human P2X3, agonist 1 μM α,β-meATP, highest concentration tested 10 μM): 7.2
- Selectivity P2X3/P2X2/3 ([2]; potency ratio P2X3 over P2X2/3 from pIC50s): 6.5
Structure (SMILES): COc1nc(C(C)C)c(Oc2cnc(N)nc2N)cc1I

The structures given here were assigned with low confidence; some may be wrong.
